Results are percentages, as filed.
How 0% and 100% were set is not recorded. Most values in the screen are low, and negative values occur.
This is an unselected part of the compounds tested.

The chains behind the UniProt entries cited, without tags or fusion partners.
UniProt E9BF75, entry or part of it: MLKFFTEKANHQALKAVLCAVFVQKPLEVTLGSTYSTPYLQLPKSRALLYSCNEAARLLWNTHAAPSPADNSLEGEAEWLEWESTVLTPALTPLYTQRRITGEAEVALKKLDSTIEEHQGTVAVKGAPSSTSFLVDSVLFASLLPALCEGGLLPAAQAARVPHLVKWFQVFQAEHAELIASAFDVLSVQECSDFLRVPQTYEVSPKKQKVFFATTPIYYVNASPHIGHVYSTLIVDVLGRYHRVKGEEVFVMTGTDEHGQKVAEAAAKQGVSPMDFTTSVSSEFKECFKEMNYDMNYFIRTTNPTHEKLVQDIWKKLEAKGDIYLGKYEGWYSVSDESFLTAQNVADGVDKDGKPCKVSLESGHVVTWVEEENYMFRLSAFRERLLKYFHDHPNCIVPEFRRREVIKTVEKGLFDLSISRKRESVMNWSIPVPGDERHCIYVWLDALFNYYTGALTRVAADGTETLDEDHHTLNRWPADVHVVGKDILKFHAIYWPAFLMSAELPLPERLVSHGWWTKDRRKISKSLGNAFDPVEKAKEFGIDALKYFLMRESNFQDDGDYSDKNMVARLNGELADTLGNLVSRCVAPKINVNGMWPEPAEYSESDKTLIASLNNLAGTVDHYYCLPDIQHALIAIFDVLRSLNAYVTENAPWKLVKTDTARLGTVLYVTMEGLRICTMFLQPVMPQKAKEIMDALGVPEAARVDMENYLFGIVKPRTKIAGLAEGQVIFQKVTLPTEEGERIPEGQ

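Primary screen of methionyl-tRNA synthetase; the read-out is not stated. Target: Methionyl-tRNA synthetase (putative), Leishmania donovani (UniProt E9BF75). The test concentration is not given. Values are per cent inhibition. Size under these conditions: about 68,000 compounds, about 24 of them at 50% or above in at least one test.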

Result for Cc1nc(CN2CCO[C@H]3[C@@H](OCc4cccnc4)CC[C@@H]32)cs1 was 7.5%. Result for Cc1nc(C2CCCN2CC(=O)N2CCCc3ccccc32)no1 (stereo not given) was 13.27%. Result for Cc1nc(-c2ccccc2)sc1CSCCS(C)(=O)=O was 6.634%. For Cc1cc(-c2cnc(N3CCC(O)CC3)nc2C(C)C)on1 the result was 6.977%.

For CCN(Cc1ccccc1)S(=O)(=O)C1CCS(=O)(=O)CC1 the result was 8.393%. For CC(=O)NCC(=O)NC1CCc2nccn2C1 (stereo not given) the result was 2.122%. CCc1nc(CN2CCN(C(C)c3nc(C4CC4)no3)CC2)no1 (stereo not given) gave 19.67%. O=S(=O)(Nc1cnc(N2CCOCC2)nc1)c1cccc(F)c1 read 7.453%.

With CSCC(=O)NS(=O)(=O)c1ccc(C#N)c(C(F)(F)F)c1 the screen gave 8.732%. For O=C(O)c1c(-c2ccncc2)ncc2c1CCN(Cc1ccco1)C2 the result was 7.65%. Result for N#Cc1cccc(CN2CCC3(CC2)CC(c2ccncc2)C(=O)N3)c1 (stereo not given) was 9.15%. For COc1cc(N2C[C@H]3CN(C(=O)c4cccnc4)C[C@H]3C2)ncn1 the result was 12.33%.

With Cc1cccc(C(C(=O)NCC2(O)CCCCC2)N(C)C)c1 (stereo not given) the screen gave 9.091%. O=C(NCCO)Nc1ccc(Br)c(F)c1 gave 4.188%. Result for C[C@@H]1C[C@H](C(F)(F)F)n2nc(C3CCN(C(=O)C(C)(C)C)CC3)cc2N1 was 13.59%. CCC/C=C/c1ccc(CN2CCCC2)cn1 read 14.93%.

With Nc1cc(C(=O)NCC2CCN(CCc3ccccc3)C2)ccn1 (stereo not given) the screen gave 19.31%. Result for CCSC1(CNc2ncc(Br)cn2)CCOCC1 was 13.71%. For OCC1(O)CCCN(Cc2ccccc2OCCc2ccccc2)CC1 (stereo not given) the result was 5.897%. Result for CCCc1nc(N[C@H]2COC[C@@H]2N2CCCC2)c2cnn(C)c2n1 was 21.29%.

With Cc1[nH]c2ccc(C(=O)N3C[C@@H](O)[C@H](N4CCOCC4)C3)cc2c1C the screen gave 9.003%. For CC(O)(CNC(=O)NCc1cccc(-n2cncn2)c1)c1ccco1 (stereo not given) the result was 7.117%. For COc1ccc(CN(Cc2cn(C)nc2C)CC2CCCO2)c(OC)c1 (stereo not given) the result was 6.78%. With Cc1cnn(CCCNC(=O)NC(C)C(=O)Nc2ccccc2)c1 (stereo not given) the screen gave 17.34%.

Result for Cc1ccc(NC2CCN(C(=O)CCOCC(F)(F)F)CC2)nn1 was 14.81%. For CCS(=O)(=O)NC(CCSC)C(=O)Nc1cc(F)ccc1C (stereo not given) the result was 11.38%. With Cn1ccnc1CN1C[C@@H](CN2CCCCC2)[C@@H](CO)C1 the screen gave 3.655%. With CC(C)N1CCC(C(=O)N2CCC(c3ccc(F)cc3)C2)CC1 (stereo not given) the screen gave 7.617%.

With Cc1nnc(NC(=O)NCc2ccc(N3CCNC(=O)C3)cc2)s1 the screen gave 9.922%. With O=C(CO)N1C[C@H]2CC[C@@H]1CN(C1Cc3ccccc3C1)C2 the screen gave 19.7%. For CC(C)N1CCC2(CC1)CC(=O)N(Cc1cc(F)cc(F)c1)C2 the result was 11.83%. With CC(C)N1CCO[C@@H]2CN(S(=O)(=O)c3cccs3)CC[C@@H]2C1 the screen gave 10.93%.

With Cc1cccc(CNc2n[nH]c(C)n2)c1 the screen gave 14.11%. With O=C(COC1CCCC1)NCCc1nc(-c2ccccn2)cs1 the screen gave 11.49%. Result for NC(=O)C1CCCN(c2ccc(CNC(=O)c3cnsn3)cc2)C1 (stereo not given) was 18.05%. c1coc(COCc2ncn3c2CN(Cc2cccs2)CCC3)c1 gave 15.56%.

Data taken from ChEMBL document CHEMBL3988442, “University of Dundee, Small-Polar-MMV Screening Library” (2021).